Test results: article PMC13577022
These are yes or no findings as the source states them, for the method shown. Binding seen in cells or lysates may run through a third protein. A result given as binding can be weak or reduced; the word gives no strength.

Protein sequences, listed by entry. Tags and fused reporters are not part of them.
UniProt A0A0F6B922: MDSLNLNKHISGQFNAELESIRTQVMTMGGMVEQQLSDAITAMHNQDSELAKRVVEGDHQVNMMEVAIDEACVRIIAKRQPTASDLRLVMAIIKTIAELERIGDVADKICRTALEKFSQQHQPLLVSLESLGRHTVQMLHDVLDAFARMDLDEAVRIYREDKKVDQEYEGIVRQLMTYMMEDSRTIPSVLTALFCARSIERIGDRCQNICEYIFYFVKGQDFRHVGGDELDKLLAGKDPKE

Molecular target: C-terminally GFP-tagged PhoR protein (Salmonella enterica serovar Typhimurium)
Test: co-IP

binding: binds
Substance: C-terminally His-tagged wild-type PhoU (from UniProt A0A0F6B922 1-241)
